# Values from PubChem BioAssay AID1259308 (NCATS, 2017)
# Aim: 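Knock-downs that increase output of a recombinant reporter protein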 (primary screen)
# System: human HEK293 embryonic kidney cells stably expressing firefly luciferase (HEK-CMV-Luc2-Hygro)
# Reagents: single siRNA against human genes, 0.8 pmol siRNA per well
# Timing: 72 h
# Measurement: 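Luciferase light (ONE-Glo) measured on one replicate plate set and viability (CellTiter-Glo) on the other, scaled to a negative control siRNA, with robust z-scores and luciferase per cell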
# Direction: total luciferase, z-score and total luciferase, % of control: higher = more reporter protein produced; luciferase per cell, z-score: higher = more reporter output per viable cell
# Call rule: 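Active when the median/MAD z-score for overall luciferase is greater than 3; a gene was taken forward for validation with new siRNAs if at least two of its three siRNAs passed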
# Calls: active = raised luciferase; inactive = no rise
# The deposit covers about 59,000 reagents; this is an unselected part. About 1,510 of them (2.6%) count as active. 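Calls use total luciferase alone and ignore viability, so some active siRNAs may act by altering cell number.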 A number with no mark means an inactive call. The numbers tell different reagents against one gene apart. Further read-outs or replicates are left out here.
gene,reagent,"total luciferase, z-score","total luciferase, % of control","luciferase per cell, z-score"
RNASEH2A (ribonuclease H2 subunit A),1,-1.09,60.2,-0.473
RNASEH2A (ribonuclease H2 subunit A),2,-0.464,72.7,0.244
RNASEH2A (ribonuclease H2 subunit A),3,-0.108,79.7,-0.156
CCL17 (C-C motif chemokine ligand 17),1,-0.287,76.2,-0.146
CCL17 (C-C motif chemokine ligand 17),2,0.0849,83.6,-0.85
CCL17 (C-C motif chemokine ligand 17),3,-0.0324,81.2,-0.499
GDPD5 (glycerophosphodiester phosphodiesterase domain containing 5),1,0.475,91.3,0.0104
GDPD5 (glycerophosphodiester phosphodiesterase domain containing 5),2,0.411,90.1,0.436
GDPD5 (glycerophosphodiester phosphodiesterase domain containing 5),3,4.08 (active),163,3.57
DNAH7 (dynein axonemal heavy chain 7),1,-0.577,70.4,-0.554
DNAH7 (dynein axonemal heavy chain 7),2,0.415,90.1,-0.108
DNAH7 (dynein axonemal heavy chain 7),3,-0.494,72.1,-0.237
OR2G3 (olfactory receptor family 2 subfamily G member 3),1,0.152,84.9,0.0784
OR2G3 (olfactory receptor family 2 subfamily G member 3),2,-0.75,67,-1.5
OR2G3 (olfactory receptor family 2 subfamily G member 3),3,0.636,94.5,0.409
PITPNA (phosphatidylinositol transfer protein alpha),1,0.838,98.5,0.559
PITPNA (phosphatidylinositol transfer protein alpha),2,-0.533,71.3,0.107
PITPNA (phosphatidylinositol transfer protein alpha),3,-1.31,55.8,-1.84
"DEGS1 (delta 4-desaturase, sphingolipid 1)",1,0.791,97.6,0.575
"DEGS1 (delta 4-desaturase, sphingolipid 1)",2,-0.0504,80.9,-0.169
"DEGS1 (delta 4-desaturase, sphingolipid 1)",3,0.266,87.2,-0.699
DTYMK (deoxythymidylate kinase),1,1.63,114,2.49
DTYMK (deoxythymidylate kinase),2,1.64,115,1.61
DTYMK (deoxythymidylate kinase),3,0.202,85.9,-0.0238

Reformatted: entries from further up.
{"gene": "CCL17 (C-C motif chemokine ligand 17)", "reagent": 2, "total luciferase, z-score": 0.0849, "total luciferase, % of control": 83.6, "luciferase per cell, z-score": -0.85}
{"gene": "CCL17 (C-C motif chemokine ligand 17)", "reagent": 3, "total luciferase, z-score": -0.0324, "total luciferase, % of control": 81.2, "luciferase per cell, z-score": -0.499}
